Measurements published in paper PMC12032302, “A20 attenuates oxidized self-DNA-mediated inflammation in acute kidney injury” (Signal Transduction and Targeted Therapy, 2025).

Experiment: serum DNA of mice
Assay type: in vivo, mouse
Conditions: AKI mice; cisplatin 25 mg/kg, AA I 10 mg/kg every 24 h for 3 days or LPS 25 mg/kg, i.p.; n = 5; Fig. 1b

Structure (SMILES) | serum DNA levels
COc1cccc2c1cc([N+](=O)[O-])c1c(C(=O)O)cc3c(c12)OCO3 [aristolochic acid I] | obviously elevated levels of DNA in serum
N.N.[Cl][Pt][Cl] [cisplatin] | obviously elevated levels of DNA in serum
